This experiment has as its system P388 leukemia ip, CD2F1 mice, survival T/C. Put plainly: NCI In Vivo Anticancer Drug Screen. Data for tumor model P388 Leukemia (intraperitoneal) in CD2F1 (CDF1) mice. The conditions noted are these: T/C endpoint: median survival time, higher T/C = longer survival.
Where [1] appears, read: dose: 200.0 mg/kg/injection, schedule: Q01DX009 (ip), vehicle: saline.
The mark [2] stands for this setting: dose: 50.0 mg/kg/injection, schedule: Q01DX009 (ip), vehicle: saline.
Where [3] appears, read: dose: 6.25 mg/kg/injection, schedule: Q01DX009 (ip), vehicle: Klucel (hydroxypropylcellulose) (HPC).
Setting [4] is: dose: 12.5 mg/kg/injection, schedule: Q01DX009 (ip), vehicle: Klucel (hydroxypropylcellulose) (HPC).
Setting [5] is: dose: 25.0 mg/kg/injection, schedule: Q01DX009 (ip), vehicle: Klucel (hydroxypropylcellulose) (HPC).
[6] abbreviates: dose: 50.0 mg/kg/injection, schedule: Q01DX009 (ip), vehicle: Klucel (hydroxypropylcellulose) (HPC).
[7] abbreviates: dose: 100.0 mg/kg/injection, schedule: Q01DX009 (ip), vehicle: Klucel (hydroxypropylcellulose) (HPC).
The mark [8] stands for this setting: dose: 400.0 mg/kg/injection, schedule: Q04DX003 (ip), vehicle: saline with Tween-80.

We go through 20 compounds from PubChem BioAssay AID330 (DTP/NCI, 2004).

Structures are written as SMILES. The list shows only some results of the screen, not a fair sample: it is rich in T/C values a quarter to a half above the control, in often repeated tests (any T/C) and in doses without a T/C. Further doses and runs are listed elsewhere. T/C gives the treated animals as a percentage of the vehicle group. Some doses have a count of surviving animals in place of a T/C: the source files T/C as zero there, which appears to mark a toxic dose or a test without result, not a measured value. Some survivor counts are full or nearly so, which does not show that the dose was tolerated: the source hardly ever lists a survival T/C far under the control, and the zero likely stands for such cases as well. Counts of survivors are from the toxicity check (mostly the fifth day) where no day follows; animals may have died later. Schedule codes are those of the source, taken here to give the interval after Q, in days (D) or hours (H), and the number of doses after X. Signs of the kind (2×) stand for listed records that agree. Some doses were run more than once; the values are given in rising order. Where survival is the endpoint, the PubChem record calls one and a half times the control and up active, and a quarter to a half above the control has no call in these data; cut-offs in other NCI protocols can differ.

For the compound `CN(C)C1CCC(NC2=CC(=O)C=CC2=O)CC1` (stereo not given), the survivor count reads like this: (dose: 6.25 mg/kg/injection, schedule: Q01DX005 (ip), vehicle: saline) 1 of 5; (dose: 12.5 mg/kg/injection, schedule: Q01DX005 (ip), vehicle: saline) 0 of 5; (dose: 25.0 mg/kg/injection, schedule: Q01DX005 (ip), vehicle: saline) 0 of 5; (dose: 50.0 mg/kg/injection, schedule: Q01DX005 (ip), vehicle: saline) 0 of 5; (dose: 100.0 mg/kg/injection, schedule: Q01DX005 (ip), vehicle: saline) 0 of 5; (dose: 200.0 mg/kg/injection, schedule: Q01DX005 (ip), vehicle: saline) 0 of 5.

In the case of `CC(C)(C)CC(C)(C)c1ccc(O)c(O)c1`, the survivor count reads like this: under setting [1], 2 of 6 and 6 of 6; (dose: 400.0 mg/kg/injection, schedule: Q01DX009 (ip), vehicle: saline) 0 of 6; (dose: 600.0 mg/kg/injection, schedule: Q01DX009 (ip), vehicle: saline) 0 of 6 and 6 of 6.

Take `CC(=O)OC1OC(=O)C(C)(C(C)=O)C1C` (stereo not given): the survivor count by setting is: (dose: 50.0 mg/kg/injection, schedule: Q01DX005 (ip), vehicle: distilled water + alcohol) 5 of 6; (dose: 100.0 mg/kg/injection, schedule: Q01DX005 (ip), vehicle: distilled water + alcohol) 2 of 6; (dose: 200.0 mg/kg/injection, schedule: Q01DX005 (ip), vehicle: distilled water + alcohol) 0 of 6.

For the compound `N#Cc1c(N)nc2c(c(-c3ccc(Cl)cc3)nn2-c2ccccc2)c1C#N`, the survivor count reads like this: (dose: 30.0 mg/kg/injection, schedule: Q01DX005 (ip), vehicle: saline with Tween-80) 6 of 6; (dose: 60.0 mg/kg/injection, schedule: Q01DX005 (ip), vehicle: saline with Tween-80) 6 of 6.

In the case of `[O-][n+]1ccccc1C1CO1` (stereo not given), the survivor count reads like this: under setting [2], 6 of 6; under setting [1], 0 of 6.

On to `O=C(O)CC1SC(c2ccccc2Cl)N(/N=C/c2ccccc2Cl)C1=O` (stereo not given), for which the survivor count runs as follows: (dose: 100.0 mg/kg/injection, schedule: Q01DX009 (ip), vehicle: saline with Tween-80) 6 of 6; (dose: 200.0 mg/kg/injection, schedule: Q01DX009 (ip), vehicle: saline with Tween-80) 6 of 6.

Take `O=C1C(CC=C(Cl)Cl)=C(OC2OC(CO)C(O)C(O)C2O)C(=O)c2ccccc21` (stereo not given): the survivor count (dose: 25.0 mg/kg/injection, schedule: Q01DX009 (ip), vehicle: saline with Tween-80) was 5 of 6.

On to `CC(/C=N\Nc1ccc(Cl)cc1)=N/NC(N)=S`, for which, where the note is “dose: 400.0 mg/kg/injection, schedule: Q04DX002 (ip), vehicle: saline”, the survivor count was 0 of 6.

Regarding `C[N+]1(C)N=C([O-])N(c2ccccc2F)C1=O`, for the setting “dose: 400.0 mg/kg/injection, schedule: Q04DX003 (ip), vehicle: Klucel (hydroxypropylcellulose) (HPC)”, the survivor count is listed as 5 of 6.

`C=CCSC(C)=O`: the survivor count (dose: 240.0 mg/kg/injection, schedule: Q01DX005 (ip), vehicle: saline with Tween-80) is reported as 2 of 6.

In the case of `COc1cc2c(cc1OC)C(C)N1CCc3cc(OC)c(OC)cc3C1C2` (stereo not given), the survivor count reads like this: under setting [3], 1 of 6 and 3 of 6; under setting [4], 0 of 6; under setting [5], 0 of 6; under setting [6], 0 of 6; under setting [7], 0 of 6; (dose: 200.0 mg/kg/injection, schedule: Q01DX009 (ip), vehicle: Klucel (hydroxypropylcellulose) (HPC)) 0 of 6.

For `N/N=C1/C=Cc2cccc3cccc1c23`, the survivor count (dose: 200.0 mg/kg/injection, schedule: Q01DX005 (ip), vehicle: saline with Tween-80) was 4 of 6.

For the compound `C(=N\Nc1nnc2c(n1)[nH]c1ccccc12)/c1cccnc1`, the survivor count runs as follows: (dose: 50.0 mg/kg/injection, schedule: Q01DX005 (ip), vehicle: Klucel + Tween-80) 6 of 6; (dose: 100.0 mg/kg/injection, schedule: Q01DX005 (ip), vehicle: Klucel + Tween-80) 6 of 6; (dose: 200.0 mg/kg/injection, schedule: Q01DX005 (ip), vehicle: Klucel + Tween-80) 4 of 6.

With `CCOC(=O)[C]1([Bi]([CH3])[CH3])N=NC(C(=O)OC)=C1C(=O)OC` (stereo not given), the survivor count is reported as 1 of 6 (dose: 100.0 mg/kg/injection, schedule: Q04DX003 (ip), vehicle: saline); 0 of 6 (dose: 200.0 mg/kg/injection, schedule: Q04DX003 (ip), vehicle: saline with Tween-80); 0 of 6 under setting [8].

For the compound `O=C1OCC2OC(=O)c3cc(O)c(O)c(O)c3-c3c(O)c(O)c(O)c4c3C(=O)OC(C2OC(=O)c2cc(O)c(O)c(O)c2-c2c1cc(O)c(O)c2O)C1OC(=O)c2c-4c(O)c(O)c(O)c2C1O` (stereo not given), the survivor count by setting is: (dose: 12.5 mg/kg/injection, schedule: Q01DX009 (ip), vehicle: saline) 3 of 6; (dose: 25.0 mg/kg/injection, schedule: Q01DX009 (ip), vehicle: saline) 0 of 6 and 1 of 6; under setting [2], 3 of 6 and 5 of 6; (dose: 100.0 mg/kg/injection, schedule: Q01DX009 (ip), vehicle: saline) 0 of 6 and 2 of 6; under setting [1], 0 of 6 (2×).

Consider `CCN(CC)P(=O)(N1CC1)N1CC1`, for which, under “dose: 6.25 mg/kg/injection, schedule: Q04DX003 (ip), vehicle: saline”, the T/C was 145 % of control.

As to `O=[N+]([O-])c1ccc(-n2[nH]nnc2=S)cc1`, the survivor count under setting [8] is 0 of 6 and 2 of 6.

For the compound `Cc1cc(O)c(C(=O)/C=C/c2ccnc3ccccc23)c(=O)o1`, the survivor count (dose: 240.0 mg/kg/injection, schedule: Q01DX005 (ip), vehicle: Klucel (hydroxypropylcellulose) (HPC)) is recorded as 0 of 6.

In the case of `Clc1ccc2c(c1)C(c1ccccc1)=NCc1nncn1-2`, under setting [7], the survivor count is reported as 5 of 6.

For `Cc1ccc(NC(=O)N2CC2)cc1NC(=O)N1CC1`, the T/C (dose: 3.12 mg/kg/injection, schedule: Q01DX009 (ip), vehicle: Klucel (hydroxypropylcellulose) (HPC)) is 137 % of control. Besides, the survivor count is, setting by setting: under setting [3], 6 of 6; under setting [4], 6 of 6; under setting [5], 4 of 6 (2×); under setting [6], 0 of 6; under setting [7], 0 of 6.
